Data reported in publication PMC10763354.
No constants are given. Whether binding was seen depends on the method and setting. Binding calls can cover weak binding; strength is not graded here.

Biological target: T1, leucine-rich repeat containing 19 (LRRC19) protein (UniProt Q9H756)
T1 sequence (chain, NT647 fluorescence dye (in the MST experiments only)): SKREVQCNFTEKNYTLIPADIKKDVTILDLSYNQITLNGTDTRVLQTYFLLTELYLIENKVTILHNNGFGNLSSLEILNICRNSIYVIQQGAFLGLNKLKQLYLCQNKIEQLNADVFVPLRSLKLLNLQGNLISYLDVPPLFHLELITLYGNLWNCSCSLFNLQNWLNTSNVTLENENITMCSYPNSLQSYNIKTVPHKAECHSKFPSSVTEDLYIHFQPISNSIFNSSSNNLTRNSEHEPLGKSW
Test: MST; Monolith NT.115; LRRC19 labelled with NT647 dye; DVF in MST buffer (50 mM Tris-HCl pH 7.4, 150 mM NaCl, 10 mM MgCl2); both purified

- binding: binds
Substance: Desulfovibrio vulgaris flagellin
